Measurements published in the supplement of paper PMC10849652.
Some of the results follow.

Sequences of proteins named here, by UniProt entry; tags and fusion partners are left off. A change or cut given only in a name is not applied to a line headed by its entry.
UniProt P60900, whole entry, looked up: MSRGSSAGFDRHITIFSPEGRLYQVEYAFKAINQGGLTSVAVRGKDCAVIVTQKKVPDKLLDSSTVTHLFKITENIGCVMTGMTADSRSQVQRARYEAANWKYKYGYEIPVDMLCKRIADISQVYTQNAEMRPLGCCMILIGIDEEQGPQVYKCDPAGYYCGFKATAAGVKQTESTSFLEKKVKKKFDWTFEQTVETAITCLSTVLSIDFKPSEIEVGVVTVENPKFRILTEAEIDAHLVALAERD
UniProt Q9Y3E5: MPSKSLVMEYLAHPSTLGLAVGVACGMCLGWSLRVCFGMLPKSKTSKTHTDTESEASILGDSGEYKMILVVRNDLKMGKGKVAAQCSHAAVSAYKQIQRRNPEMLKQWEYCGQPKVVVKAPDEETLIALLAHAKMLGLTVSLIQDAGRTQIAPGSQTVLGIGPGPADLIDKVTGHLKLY
UniProt Q8TB72: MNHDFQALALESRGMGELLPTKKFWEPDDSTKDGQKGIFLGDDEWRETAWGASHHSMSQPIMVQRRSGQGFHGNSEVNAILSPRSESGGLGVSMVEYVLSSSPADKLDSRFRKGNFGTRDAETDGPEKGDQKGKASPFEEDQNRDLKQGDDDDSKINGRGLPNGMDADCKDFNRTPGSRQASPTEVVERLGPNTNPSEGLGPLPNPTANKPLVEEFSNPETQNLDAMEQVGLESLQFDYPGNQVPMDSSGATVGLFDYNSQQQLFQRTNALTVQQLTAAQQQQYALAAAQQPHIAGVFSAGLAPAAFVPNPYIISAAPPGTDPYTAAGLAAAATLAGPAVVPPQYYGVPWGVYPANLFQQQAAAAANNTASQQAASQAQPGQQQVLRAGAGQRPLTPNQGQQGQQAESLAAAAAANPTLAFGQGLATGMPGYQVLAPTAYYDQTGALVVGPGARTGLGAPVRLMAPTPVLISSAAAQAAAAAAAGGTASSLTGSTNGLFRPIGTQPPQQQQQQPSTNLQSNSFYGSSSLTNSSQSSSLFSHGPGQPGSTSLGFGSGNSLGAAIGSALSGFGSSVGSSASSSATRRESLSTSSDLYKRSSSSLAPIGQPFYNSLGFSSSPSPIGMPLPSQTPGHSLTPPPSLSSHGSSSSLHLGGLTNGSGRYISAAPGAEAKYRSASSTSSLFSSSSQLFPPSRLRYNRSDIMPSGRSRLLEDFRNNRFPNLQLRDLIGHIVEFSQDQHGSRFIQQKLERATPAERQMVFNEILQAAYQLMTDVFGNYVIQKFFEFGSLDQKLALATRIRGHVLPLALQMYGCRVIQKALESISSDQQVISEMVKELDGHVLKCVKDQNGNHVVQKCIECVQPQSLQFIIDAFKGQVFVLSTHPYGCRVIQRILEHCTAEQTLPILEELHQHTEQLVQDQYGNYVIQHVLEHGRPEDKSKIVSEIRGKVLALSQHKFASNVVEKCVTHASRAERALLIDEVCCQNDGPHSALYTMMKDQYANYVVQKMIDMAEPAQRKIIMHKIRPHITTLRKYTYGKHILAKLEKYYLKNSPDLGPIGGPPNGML
UniProt O14818: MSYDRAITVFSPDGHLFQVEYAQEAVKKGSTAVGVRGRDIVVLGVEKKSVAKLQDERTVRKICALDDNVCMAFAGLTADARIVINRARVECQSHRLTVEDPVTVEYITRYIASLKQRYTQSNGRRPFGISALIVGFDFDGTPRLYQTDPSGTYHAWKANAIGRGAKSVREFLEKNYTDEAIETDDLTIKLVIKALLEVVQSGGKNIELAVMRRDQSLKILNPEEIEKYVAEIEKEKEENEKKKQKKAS
UniProt P62333, whole entry, looked up: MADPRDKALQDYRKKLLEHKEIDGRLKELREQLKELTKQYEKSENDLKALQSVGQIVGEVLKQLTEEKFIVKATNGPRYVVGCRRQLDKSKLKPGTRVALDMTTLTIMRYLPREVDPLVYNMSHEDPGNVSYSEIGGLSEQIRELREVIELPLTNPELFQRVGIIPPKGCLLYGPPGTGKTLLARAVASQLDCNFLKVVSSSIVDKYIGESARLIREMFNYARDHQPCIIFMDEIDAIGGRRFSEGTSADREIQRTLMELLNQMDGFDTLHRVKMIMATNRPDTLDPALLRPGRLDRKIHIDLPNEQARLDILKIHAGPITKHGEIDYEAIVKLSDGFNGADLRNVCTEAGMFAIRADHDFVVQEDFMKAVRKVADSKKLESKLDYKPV
UniProt P25788: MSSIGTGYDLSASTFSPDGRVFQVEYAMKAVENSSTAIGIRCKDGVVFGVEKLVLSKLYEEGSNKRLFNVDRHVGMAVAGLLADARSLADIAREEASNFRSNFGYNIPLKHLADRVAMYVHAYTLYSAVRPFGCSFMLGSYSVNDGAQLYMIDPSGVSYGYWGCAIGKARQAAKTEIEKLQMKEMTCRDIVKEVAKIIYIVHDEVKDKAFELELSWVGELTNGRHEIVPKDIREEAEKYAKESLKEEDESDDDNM
UniProt Q8N0Z8: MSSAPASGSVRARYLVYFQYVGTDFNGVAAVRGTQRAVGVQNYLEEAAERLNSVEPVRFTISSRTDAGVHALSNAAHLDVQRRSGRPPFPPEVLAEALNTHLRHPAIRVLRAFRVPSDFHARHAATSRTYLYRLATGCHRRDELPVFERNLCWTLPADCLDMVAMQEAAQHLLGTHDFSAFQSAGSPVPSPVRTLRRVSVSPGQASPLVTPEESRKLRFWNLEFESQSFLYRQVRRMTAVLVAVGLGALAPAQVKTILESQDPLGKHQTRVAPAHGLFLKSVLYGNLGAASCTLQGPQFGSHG
UniProt P49721: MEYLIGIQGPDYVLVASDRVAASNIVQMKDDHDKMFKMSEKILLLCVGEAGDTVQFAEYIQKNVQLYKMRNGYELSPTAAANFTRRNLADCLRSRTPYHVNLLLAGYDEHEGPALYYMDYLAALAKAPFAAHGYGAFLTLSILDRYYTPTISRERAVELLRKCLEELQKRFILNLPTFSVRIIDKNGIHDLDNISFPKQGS
UniProt Q96BW5: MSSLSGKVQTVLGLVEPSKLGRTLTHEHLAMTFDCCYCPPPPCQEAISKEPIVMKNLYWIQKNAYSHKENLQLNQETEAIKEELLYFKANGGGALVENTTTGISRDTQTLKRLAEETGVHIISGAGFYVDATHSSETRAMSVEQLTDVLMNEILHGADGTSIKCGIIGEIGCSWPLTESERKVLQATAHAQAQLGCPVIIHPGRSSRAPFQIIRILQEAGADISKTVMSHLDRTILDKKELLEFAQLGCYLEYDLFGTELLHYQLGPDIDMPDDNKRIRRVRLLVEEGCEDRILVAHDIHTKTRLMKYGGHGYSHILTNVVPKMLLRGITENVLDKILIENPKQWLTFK
UniProt Q9BVG9: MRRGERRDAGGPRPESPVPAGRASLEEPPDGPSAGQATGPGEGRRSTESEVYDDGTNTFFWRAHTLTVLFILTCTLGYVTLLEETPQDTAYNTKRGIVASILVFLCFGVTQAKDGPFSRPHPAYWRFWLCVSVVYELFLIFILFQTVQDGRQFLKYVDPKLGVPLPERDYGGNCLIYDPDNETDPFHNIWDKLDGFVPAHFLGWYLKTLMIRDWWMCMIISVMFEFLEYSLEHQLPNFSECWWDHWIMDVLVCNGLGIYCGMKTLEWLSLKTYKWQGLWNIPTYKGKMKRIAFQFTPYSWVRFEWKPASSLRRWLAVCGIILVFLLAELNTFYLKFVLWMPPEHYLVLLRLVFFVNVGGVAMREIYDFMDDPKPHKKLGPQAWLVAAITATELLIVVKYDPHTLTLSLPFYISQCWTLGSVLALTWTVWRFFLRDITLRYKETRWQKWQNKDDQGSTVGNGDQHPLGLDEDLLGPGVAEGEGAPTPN
UniProt P28072: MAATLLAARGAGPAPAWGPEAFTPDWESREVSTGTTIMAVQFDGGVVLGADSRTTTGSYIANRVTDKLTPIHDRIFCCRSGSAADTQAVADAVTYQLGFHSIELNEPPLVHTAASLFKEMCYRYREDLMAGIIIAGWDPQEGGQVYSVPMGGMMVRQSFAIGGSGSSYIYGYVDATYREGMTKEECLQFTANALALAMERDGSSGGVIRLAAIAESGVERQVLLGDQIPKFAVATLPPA
UniProt Q15269: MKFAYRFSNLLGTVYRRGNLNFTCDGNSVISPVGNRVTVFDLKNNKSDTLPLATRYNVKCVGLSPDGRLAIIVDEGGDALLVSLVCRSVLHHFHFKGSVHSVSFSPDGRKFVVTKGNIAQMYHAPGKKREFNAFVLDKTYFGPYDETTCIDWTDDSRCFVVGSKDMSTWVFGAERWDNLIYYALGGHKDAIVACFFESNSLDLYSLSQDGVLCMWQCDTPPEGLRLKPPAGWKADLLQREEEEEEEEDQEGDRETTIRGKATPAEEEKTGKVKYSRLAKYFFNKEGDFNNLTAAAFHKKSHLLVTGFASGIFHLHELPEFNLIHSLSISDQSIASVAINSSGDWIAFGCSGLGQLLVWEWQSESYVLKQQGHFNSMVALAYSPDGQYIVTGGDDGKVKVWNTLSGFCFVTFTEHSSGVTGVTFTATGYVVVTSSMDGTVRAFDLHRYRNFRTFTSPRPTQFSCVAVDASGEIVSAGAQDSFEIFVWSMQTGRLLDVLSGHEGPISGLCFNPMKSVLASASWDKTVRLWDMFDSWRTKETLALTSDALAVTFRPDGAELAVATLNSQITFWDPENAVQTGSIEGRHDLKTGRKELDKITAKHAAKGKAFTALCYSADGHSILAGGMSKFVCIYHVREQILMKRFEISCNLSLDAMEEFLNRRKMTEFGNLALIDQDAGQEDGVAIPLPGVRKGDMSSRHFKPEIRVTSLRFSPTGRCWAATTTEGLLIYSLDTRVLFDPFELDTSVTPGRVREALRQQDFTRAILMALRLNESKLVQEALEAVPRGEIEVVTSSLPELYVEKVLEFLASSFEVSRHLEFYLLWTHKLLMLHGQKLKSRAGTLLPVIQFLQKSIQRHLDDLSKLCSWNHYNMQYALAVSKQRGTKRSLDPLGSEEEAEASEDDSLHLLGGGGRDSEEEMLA
UniProt P41219, whole entry, looked up: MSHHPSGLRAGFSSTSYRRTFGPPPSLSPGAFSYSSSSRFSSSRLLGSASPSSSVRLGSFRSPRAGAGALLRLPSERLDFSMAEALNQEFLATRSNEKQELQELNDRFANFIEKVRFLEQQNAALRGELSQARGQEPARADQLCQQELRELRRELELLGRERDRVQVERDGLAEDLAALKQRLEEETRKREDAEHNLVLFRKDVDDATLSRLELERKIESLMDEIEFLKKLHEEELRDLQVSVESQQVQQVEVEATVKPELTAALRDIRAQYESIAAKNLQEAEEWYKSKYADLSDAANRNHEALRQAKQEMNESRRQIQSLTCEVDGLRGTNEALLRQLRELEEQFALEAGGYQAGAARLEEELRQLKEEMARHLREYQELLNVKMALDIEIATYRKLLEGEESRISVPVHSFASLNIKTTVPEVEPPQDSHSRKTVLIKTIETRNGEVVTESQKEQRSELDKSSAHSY
UniProt Q16401: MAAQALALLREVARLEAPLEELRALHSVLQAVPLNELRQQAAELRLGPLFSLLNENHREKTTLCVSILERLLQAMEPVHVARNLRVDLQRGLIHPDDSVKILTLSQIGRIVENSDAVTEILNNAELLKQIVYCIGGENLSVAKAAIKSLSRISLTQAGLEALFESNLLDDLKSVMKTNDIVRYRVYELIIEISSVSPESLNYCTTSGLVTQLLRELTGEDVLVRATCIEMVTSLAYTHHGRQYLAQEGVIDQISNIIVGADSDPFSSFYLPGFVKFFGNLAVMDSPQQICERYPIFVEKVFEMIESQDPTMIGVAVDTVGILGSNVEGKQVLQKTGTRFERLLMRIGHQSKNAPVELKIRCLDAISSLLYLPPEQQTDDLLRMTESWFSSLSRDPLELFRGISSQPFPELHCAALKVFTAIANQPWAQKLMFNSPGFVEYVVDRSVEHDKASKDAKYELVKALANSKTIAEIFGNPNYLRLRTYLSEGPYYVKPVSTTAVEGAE
UniProt Q9H0K6: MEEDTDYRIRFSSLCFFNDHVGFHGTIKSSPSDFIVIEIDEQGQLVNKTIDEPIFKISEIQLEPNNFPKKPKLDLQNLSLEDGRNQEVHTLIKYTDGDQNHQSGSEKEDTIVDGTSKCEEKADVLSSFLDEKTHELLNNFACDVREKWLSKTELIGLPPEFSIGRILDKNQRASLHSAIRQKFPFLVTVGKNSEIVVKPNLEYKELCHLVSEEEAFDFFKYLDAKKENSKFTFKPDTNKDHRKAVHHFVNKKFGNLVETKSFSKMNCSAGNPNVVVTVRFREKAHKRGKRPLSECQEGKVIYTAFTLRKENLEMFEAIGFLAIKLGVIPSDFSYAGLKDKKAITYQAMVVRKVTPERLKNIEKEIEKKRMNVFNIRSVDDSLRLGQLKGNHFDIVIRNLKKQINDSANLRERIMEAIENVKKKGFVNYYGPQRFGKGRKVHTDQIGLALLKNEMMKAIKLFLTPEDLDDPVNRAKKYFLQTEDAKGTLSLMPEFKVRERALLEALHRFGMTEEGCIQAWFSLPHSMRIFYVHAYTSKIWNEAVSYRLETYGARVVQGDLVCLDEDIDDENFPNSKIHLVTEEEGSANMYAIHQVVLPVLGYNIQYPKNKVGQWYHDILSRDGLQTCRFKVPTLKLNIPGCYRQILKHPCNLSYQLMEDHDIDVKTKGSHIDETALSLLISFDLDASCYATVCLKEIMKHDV

Tests used:
Test in all cases: log2 fold change, soluble protein after heating vs DMSO (PISA); higher = thermal stabilisation; K562 lysate, 10 uM; active = over 0.2 and 3.5 SD of the protein, either way, in both replicates (recomputed)
[1] = compound: Cc1cn(-c2cc(NC(=O)c3ccc(C)c(Nc4nccc(-c5cccnc5)n4)c3)cc(C(F)(F)F)c2)cn1 [nilotinib]
Procedure, shortened: (§1)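 Thermal stability, expressed as log-two fold change relative to solvent controls, is given from duplicates. Crude K562 extract in PBS pH 7.4 with 1 mM MgCl2, at 1 mg/mL protein, was treated with 10 μM compound for 30 min and heated in aliquots for 3 min across 48°C-58°C. After pooling, adjustment to 0.5% NP-40 at 4°C and centrifugation at 21,000xg for 90 min, supernatant protein was measured by TMTpro 16plex LC-MS/MS with channel sums equalised.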

[2] = compound: Cc1nc(Nc2n[nH]c3c2CN(C(=O)N[C@H](CN(C)C)c2ccccc2)C3(C)C)c2sccc2n1
Procedure, shortened: as §1

[3] = compound: Cc1nc(Nc2ncc(C(=O)Nc3c(C)cccc3Cl)s2)cc(N2CCN(CCO)CC2)n1 [dasatinib]
Procedure, shortened: as §1

[4] = compound: Cc1ncc(-c2ccnc(Nc3ccc(S(C)(=O)=O)cc3)n2)n1C(C)C
Procedure, shortened: as §1

[5] = compound: Cn1cc(-c2ccc3c(c2)CCN3C(=O)Cc2cccc(C(F)(F)F)c2)c2c(N)ncnc21
Procedure, shortened: as §1

[6] = compound: Cn1cc(CNCC2CCN(c3ncc(C(=O)NO)cn3)CC2)c2ccccc21 [quisinostat]
Procedure, shortened: as §1

[7] = compound: Cn1cncc1[C@@](N)(c1ccc(Cl)cc1)c1ccc2c(c1)c(-c1cccc(Cl)c1)cc(=O)n2C [tipifarnib]
Procedure, shortened: as §1

[8] = compound: NC(=O)Nc1cc(-c2cccc(F)c2)sc1C(=O)N[C@H]1CCCNC1
Procedure, shortened: as §1

[9] = compound: NC(=O)c1cnc(N[C@@H]2CCCC[C@@H]2N)nc1Nc1cccc(-n2nccn2)c1
Procedure, shortened: as §1

[10] = compound: NC1(c2ccc(-c3nc4ccn5c(=O)[nH]nc5c4cc3-c3ccccc3)cc2)CCC1
Procedure, shortened: as §1

Measured: log2 fold change

PSMA5 (UniProt P28066)
inactive: [1] 0.022 | [2] -0.039 | [3] 0.012 | [4] 0.013 | [5] 0 | [6] -0.022 | [7] -0.011 | [8] 0.006 | [9] -0.002 | [10] -0.01

PSMA6 (UniProt P60900)
inactive: [1] 0.035 | [2] -0.018 | [3] 0.031 | [4] -0.008 | [5] -0.034 | [6] -0.011 | [7] -0.001 | [8] -0.016 | [9] -0.029 | [10] -0.01

PTTG1IP (UniProt P53801)
inactive: [1] -0.242 | [2] -0.03 | [3] -0.085 | [4] -0.202 | [5] 0.176 | [6] -0.18 | [7] -0.034 | [8] 0.067 | [9] 0.039 | [10] 0.086

PTRH2 (UniProt Q9Y3E5)
inactive: [1] 0.007 | [2] 0.043 | [3] 0.028 | [4] 0.031 | [5] -0.012 | [6] -0.147 | [7] 0.004 | [8] 0.024 | [9] 0.02 | [10] 0.026

PTAR1 (UniProt Q7Z6K3)
inactive: [1] 0.027 | [2] -0.032 | [3] 0.144 | [4] -0.03 | [5] -0.014 | [6] -0.071 | [7] 0.02 | [8] 0.021 | [9] 0.008 | [10] 0.034

PUM2 (UniProt Q8TB72)
inactive: [1] -0.109 | [2] -0.021 | [3] -0.146 | [4] -0.052 | [5] 0.1 | [6] 0.108 | [7] -0.05 | [8] 0.014 | [9] 0.071 | [10] -0.05

PSMA7 isoform 2 (UniProt O14818)
inactive: [1] -0.093 | [2] -0.013 | [3] -0.104 | [4] -0.272 | [5] 0.176 | [6] -0.545 | [7] -0.025 | [8] -0.323

PSMC6 (UniProt P62333)
inactive: [1] -0.004 | [2] -0.003 | [3] -0.018 | [4] 0.001 | [5] 0.031 | [6] 0.018 | [7] -0.001 | [8] 0.022 | [9] -0.004 | [10] 0.005

PSMA3 (UniProt P25788)
inactive: [1] 0.014 | [2] -0.002 | [3] 0.006 | [4] -0.021 | [5] 0.004 | [6] 0.05 | [7] 0.029 | [8] -0.025 | [9] -0.015 | [10] 0.018

PTPN6 isoform 4 (UniProt P29350)
inactive: [1] -0.002 | [2] -0.028 | [3] 0.028 | [4] -0.043 | [5] 0.071 | [6] 0.01 | [7] 0.055 | [8] -0.03 | [9] -0.128 | [10] 0.062

PRRC2B (UniProt Q5JSZ5)
inactive: [1] -0.054 | [2] -0.036 | [3] -0.071 | [4] 0.006 | [5] -0.027 | [6] 0.044 | [7] 0.045 | [8] 0.055 | [9] -0.002 | [10] 0.041

PSMA2 (UniProt P25787)
inactive: [1] 0.028 | [2] -0.039 | [3] 0.008 | [4] -0.026 | [5] -0.029 | [6] -0.022 | [7] 0.015 | [8] 0.002 | [9] -0.011 | [10] 0.018

PUSL1 (UniProt Q8N0Z8)
inactive: [1] -0.007 | [2] -0.168 | [3] -0.046 | [4] 0.025 | [5] -0.16 | [6] -0.081 | [7] 0.081 | [8] 0.054 | [9] -0.005 | [10] -0.134

PSMB2 (UniProt P49721)
inactive: [1] 0.059 | [2] -0.011 | [3] 0.022 | [4] 0.024 | [5] -0.06 | [6] 0.001 | [7] 0.001 | [8] -0.066 | [9] -0.021 | [10] 0.005

PSME1 (UniProt Q06323)
inactive: [1] 0.026 | [2] -0.004 | [3] 0.052 | [4] -0.012 | [5] 0.016 | [6] 0.041 | [7] 0.027 | [8] -0.007 | [9] -0.009 | [10] 0.022

PRPSAP1 isoform 2 (UniProt Q14558)
inactive: [1] 0.057 | [2] -0.036 | [3] -0.009 | [4] -0.004 | [5] -0.01 | [6] 0.101 | [7] -0.006 | [8] 0.006 | [9] 0.011 | [10] 0.007

PUF60 (UniProt Q9UHX1)
inactive: [1] -0.006 | [2] -0.002 | [3] -0.025 | [4] 0.011 | [5] -0.017 | [6] 0.073 | [7] 0.016 | [8] -0.017 | [9] -0.001 | [10] 0.021

PTER (UniProt Q96BW5)
inactive: [1] 0.026 | [2] -0.012 | [3] 0 | [4] -0.004 | [5] 0.009 | [6] -0.01 | [7] 0.02 | [8] 0.008 | [9] -0.007 | [10] 0.027

PTPN23 (UniProt Q9H3S7)
inactive: [1] -0.003 | [2] -0.029 | [3] -0.034 | [4] -0.002 | [5] 0.01 | [6] 0.002 | [7] 0 | [8] 0.024 | [9] 0.025 | [10] 0.005

PSMC3 (UniProt P17980)
inactive: [1] -0.004 | [2] 0 | [3] 0.003 | [4] -0.052 | [5] 0.007 | [6] 0.029 | [7] -0.008 | [8] 0.012 | [9] 0.001 | [10] 0.002

PTPN18 (UniProt Q99952)
inactive: [1] 0.021 | [2] -0.043 | [3] -0.048 | [4] -0.006 | [5] -0.039 | [6] -0.121 | [7] 0.063 | [8] 0.049 | [9] 0.028 | [10] 0.001

2 successive records already listed, quoted:
PUF60 (UniProt Q9UHX1)
inactive: [1] -0.006 | [2] -0.002 | [3] -0.025 | [4] 0.011 | [5] -0.017 | [6] 0.073 | [7] 0.016 | [8] -0.017 | [9] -0.001 | [10] 0.021

PTER (UniProt Q96BW5)
inactive: [1] 0.026 | [2] -0.012 | [3] 0 | [4] -0.004 | [5] 0.009 | [6] -0.01 | [7] 0.02 | [8] 0.008 | [9] -0.007 | [10] 0.027

The results go on:

PTDSS2 (UniProt Q9BVG9)
inactive: [1] -0.003 | [2] 0.012 | [3] -0.072 | [4] -0.019 | [5] 0.011 | [6] 0.007 | [7] -0.146 | [8] 0.042 | [9] -0.011 | [10] -0.001

PSMB6 (UniProt P28072)
inactive: [1] 0.024 | [2] 0.019 | [3] 0.055 | [4] 0.005 | [5] 0.032 | [6] -0.029 | [7] 0.022 | [8] -0.016 | [9] 0.026 | [10] -0.029

PTK7 isoform 6 (UniProt Q13308)
inactive: [1] -0.006 | [2] -0.003 | [3] 0 | [4] 0.087 | [5] 0.007 | [6] 0.023 | [7] 0.012 | [8] 0.034 | [9] 0.034 | [10] -0.035

PWP2 (UniProt Q15269)
inactive: [1] 0.016 | [2] -0.006 | [3] -0.033 | [4] -0.032 | [5] -0.023 | [6] -0.056 | [7] 0.004 | [8] 0.036 | [9] -0.022 | [10] 0.011

PRPH isoform 2 (UniProt P41219)
inactive: [1] -0.022 | [2] 0.032 | [3] -0.019 | [4] -0.024 | [5] 0.036 | [6] 0.034 | [7] -0.02 | [8] -0.027 | [9] 0.028 | [10] 0.094

PSMD5 (UniProt Q16401)
inactive: [1] -0.006 | [2] -0.027 | [3] -0.027 | [4] -0.026 | [5] 0.03 | [6] 0.007 | [7] -0.005 | [8] -0.005 | [9] 0.012 | [10] -0.017

PSEN1 (UniProt P49768)
inactive: [1] -0.01 | [2] -0.034 | [3] 0.008 | [4] 0.058 | [5] -0.029 | [6] -0.11 | [7] 0.076 | [8] 0.016 | [9] 0.019 | [10] -0.01

PSEN2 (UniProt P49810)
inactive: [1] -0.142 | [2] -0.058 | [3] -0.009 | [4] 0.052 | [5] -0.151 | [6] -0.051 | [7] 0.004 | [8] -0.087

PUS7L (UniProt Q9H0K6)
inactive: [1] -0.06 | [2] 0.022 | [3] 0.004 | [4] 0 | [5] -0.004 | [6] 0.019 | [7] 0.027 | [8] 0.005 | [9] -0.003 | [10] -0.001
